Drawing on the supplement of paper PMC4256282, “Profound Activity of the Anti-cancer Drug Bortezomib against Echinococcus multilocularis Metacestodes Identifies the Proteasome as a Novel Drug Target for Cestodes” (PLoS Neglected Tropical Diseases, 2014), this text covers vesicle damage for 24 compounds.

Where a name gives a salt, the structure may show the parent alone. The list shows a part of the results. Many values rest on one well or one pass, so single values are uncertain.

The subject of the test is Echinococcus multilocularis metacestodes. As to the kind of experiment: vesicle damage (PGI release) relative to positive control DB1127 at 20 µM, DMSO subtracted; higher = more parasite damage. As to conditions: treatment time 5 days. The method, then: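 In vitro-cultured E. multilocularis metacestode vesicles (isolate H95, 2-4 mm) were treated in singlets with each drug of the Selleck FDA-approved library (426 drugs) at 20 µM for 5 days at 37°C. Damage was read as phosphoglucose isomerase (PGI) release into the medium, measured as the increase in absorbance at 340 nm. Activity was expressed as % of the positive control DB1127 (20 µM) after subtracting the DMSO control; a hit was defined as ≥50% of DB1127.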
In the case of `NCC1(CC(=O)O)CCCCC1` [Gabapentin Hydrochloride], the vesicle damage is -1.2%. The same measure for `CCC(=O)O[C@H]1CC[C@H]2[C@@H]3CCC4=CC(=O)CC[C@]4(C)[C@H]3CC[C@]12C` [Testosterone propionate]: -0.83%; for `NCC1(CC(=O)O)CCCCC1` [Gabapentin]: 1.72%; for `CC1C=CC=CCCC=CC=CC=CC=CC(OC2OC(C)C(O)C(N)C2O)CC2OC(O)(CC(O)C(O)CCC(O)CC(O)CC(O)CC(=O)OC(C)C(C)C1O)CC(O)C2C(=O)O` (centres undefined) [Nystatin]: -12.1%. The same measure for `O=c1[nH]c2ccccc2n1CCCN1CCC(n2c(=O)[nH]c3cc(Cl)ccc32)CC1` [Domperidone]: 11.1%. The same measure for `C#CCN(C)[C@H](C)Cc1ccccc1` [Selegiline hydrochloride]: 1.56%. On to `CN(C)C(=O)Oc1ccc[n+](C)c1` [Pyridostigmine Bromide], for which the vesicle damage was -3.24%. The same measure for `Cc1cccc(C)c1NC(=O)CN1CCCC1=O` [Nefiracetam]: -9.41%.

For `CC(O)(CS(=O)(=O)c1ccc(F)cc1)C(=O)Nc1ccc(C#N)c(C(F)(F)F)c1` (centres undefined) [Bicalutamide], the vesicle damage came to 4.91%. The same measure for `O=C(O[C@H]1C[C@H]2CC[C@@H](C1)[N+]21CCCC1)C(O)(c1ccccc1)c1ccccc1` [Trospium chloride]: 0.0302%. The same measure for `O=P1(NCCCl)OCCCN1CCCl` (centres undefined) [Ifosfamide]: 3.08%; for `C=C1C[C@@H]2[C@H](CC[C@]3(C)C(=O)CC[C@@H]23)[C@@]2(C)C=CC(=O)C=C12` [Exemestane]: -2.81%; for `N.N.[Cl][Pt][Cl]` [Cisplatin]: 0.219%. As to `CN1[C@@H]2C[C@@H](OC(=O)[C@H](CO)c3ccccc3)C[C@H]1[C@@H]1O[C@@H]12` [Scopolamine hydrobromide], the vesicle damage is -0.226%. The same measure for `CCOC(=O)c1cncn1[C@H](C)c1ccccc1` [Etomidate]: -2.29%; for `C[C@]12CC[C@H]3[C@@H](CC[C@@]45O[C@@H]4C(O)=C(C#N)C[C@]35C)[C@@H]1CC[C@@H]2O` [Trilostane]: -0.281%; for `COc1ccc(C(CN(C)C)C2(O)CCCCC2)cc1` (centres undefined) [Venlafaxine hydrochloride]: 2.1%. The same measure for `CN(C)C(=O)Oc1cccc([N+](C)(C)C)c1` [Neostigmine bromide]: 2.05%; for `Cn1c(CCCC(=O)O)nc2cc(N(CCCl)CCCl)ccc21` [Bendamustine Hydrochloride]: 1.51%; for `C[C@]12CC[C@H]3[C@@H](CCC4=CC(=O)CC[C@@]43C)[C@@H]1CC[C@@H]2OC(=O)CCC1CCCC1` [Testosterone cypionate]: -1.43%. The same measure for `CC(NC(C)(C)C)C(=O)c1cccc(Cl)c1` (centres undefined) [Amfebutamone hydrochloride]: 3.21%. Regarding `CC[C@@]1(O)C(=O)OCc2c1cc1n(c2=O)Cc2cc3ccccc3nc2-1` [Camptothecin], the vesicle damage was found to be 2.66%.

As for `CC(=O)O[C@H]1C[C@@H]2CC[C@@H]3[C@H](CC[C@@]4(C)[C@H]3C[C@H]([N+]3(C)CCCCC3)[C@@H]4OC(C)=O)[C@@]2(C)C[C@@H]1[N+]1(C)CCCCC1` [Pancuronium bromide], the vesicle damage was found to be 3.42%. The same measure for `C#C[C@]1(O)C=C[C@H]2[C@@H]3CCC4=CC(=O)CC[C@@H]4[C@H]3CC[C@@]21CC` [Gestodene]: -4.12%.
